# In all, about 220,000 compounds went through this assay and about 2,400 (1.1%) were called active. Inconclusive means that the source gave no clear call. Such entries were picked first, then a sample of the others. The call rests on the fitted dose curve; in most records, active means well fitted inhibition curve with a large enough effect; inconclusive means small, poorly fitted or top-dose-only effect, or effect the other way; inactive means no such curve, though single readings can be large or run the other way. Potencies beside an inconclusive call are fits to weak or partial responses and may not hold up.
# Assay: qHTS Multiplex Assay to Identify Dual Action Probes in a Cell Model of Huntington: Aggregate Formation (GFP); further: nearly all actives have a fitted effect of over 60% in size
# Details: PC12 HttQ103-GFP aggregates, Acumen cytometry, 40 h; activity change, negative = inhibition: at 46.1 µM (top of the series) unless noted
# In short: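 Multiplexed with ATP-based cell death, this channel scores GFP aggregates in PC12 cells expressing inducible HTTex1-Q103-GFP. Induction used 100 nM tebufenozide; compounds were tested in concentration series.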
# On the % scale 0 is the no-effect control and ±100 the full control effect; potency means the concentration at half of the fitted maximal effect.
SMILES,Potency,"activity change, negative = inhibition"
O=S(=O)(Nc1ncnc2sc3c(c12)CCC3)c1ccc2ccccc2c1,"inconclusive: 22.4 µM [inhibitor, single point]",–
CCOC(=O)c1ccc2c(c1)N(Cc1ccccc1C)C(=O)c1ccccc1S2=O (centres undefined),"inconclusive: 17.8 µM [inhibitor, single point]",–
CC(C)Cn1c(N)c(C(=O)COC(=O)c2cc(-c3ccccc3)nc3ccccc23)c(=O)n(C)c1=O,inactive,–
COc1cccc(NC(=O)NCCc2ccc(Cl)cc2)c1,"inconclusive: 5.62 µM [activator, single point]",–
O=C(COc1ncnc2sccc12)Nc1ccc2c(c1)OCCO2,inactive,–
COc1ccccc1NS(=O)(=O)c1cc(NC(=O)/C=C/c2cccs2)ccc1N1CCOCC1,"inconclusive: 10 µM [activator, partial curve]",–
CCN(CC)S(=O)(=O)c1ccc2c(c1)N(CC(=O)N(CCc1ccncc1)C(C)C)C(=O)CO2,"inconclusive: 3.55 µM [activator, single point]",–
Clc1ccc(Br)cc1-c1nc(-c2ccncc2)no1,"inconclusive: 0.562 µM [inhibitor, partial curve, poor fit]",–
O=C(NC12CC3CC(CC(C3)C1)C2)N1CCN(c2nc(-c3ccccc3)cs2)CC1,"inconclusive: 28.2 µM [inhibitor, single point]",–
Cc1ccc(Oc2nc3ccccc3n3cccc23)cc1,"inconclusive: 35.5 µM [inhibitor, partial curve, poor fit]",–
COc1cccc(/C=N/NC(=O)C(=O)NCc2cccnc2)c1O,"inconclusive: 35.5 µM [inhibitor, single point]",–
C=CCOC(=O)C1=C[C@@H](C2CCCCC2)C[C@@H](OCc2ccc(CO)cc2)O1,–,inactive: -11.6% [at 9.22 µM]
CC(=O)Nc1ccc(S(=O)(=O)N(C2=NCC(C)S2)c2ccccc2)cc1 (centres undefined),inactive,–
CC(C)C(C(=O)O)N1C(=O)/C(=C/C=C/c2ccco2)SC1=S (centres undefined),inactive,–
CCN(CC)CCN(C)C1CCC(c2ccccc2)CC1 (centres undefined),inactive,–
CN1c2ccccc2C(C)(C)C12CC(c1cccc(S(=O)(=O)N3CCCC3)c1)=NO2 (centres undefined),inactive,–
Cc1ccc(/C=N/NC(=O)NC2CCCCC2)o1,inactive,–
CCOc1ccc(N2C(=O)c3cccnc3C2Nc2ccc(F)cc2)cc1 (centres undefined),"inconclusive: 2.82 µM [activator, full curve, poor fit]",–
COc1ccccc1NC(=S)c1ccccc1,"inconclusive: 35.5 µM [activator, single point]",–
COc1ccc(CC(=O)NCc2nnc(SCC(=O)c3ccc(OC)cc3)n2C)cc1,inactive,–
CC1(C)CC(=O)C(C(N)=NC(=O)c2ccccc2)=C(O)C1,inactive,–
O=C(CN1C(=O)NC2(CCCCC2)C1=O)Nc1ccc(S(=O)(=O)N2CCOCC2)cc1,"inconclusive: 3.16 µM [activator, full curve]",–
CCOc1cccc(C(=O)Nc2cc(-c3nn4c(C)nnc4s3)ccc2C)c1,"inconclusive: 35.5 µM [activator, single point]",–
Cc1ccc(-n2c(SCC(N)=O)nc3c(c2=O)C2(CCCC2)Cc2ccccc2-3)cc1,"inconclusive: 35.5 µM [inhibitor, single point]",–
Cc1nc(=S)c2ccccc2[nH]1,inactive,–

# A portion taken from the entries so far:
SMILES,Potency,"activity change, negative = inhibition"
CC(C)C(C(=O)O)N1C(=O)/C(=C/C=C/c2ccco2)SC1=S (centres undefined),inactive,–
CCN(CC)CCN(C)C1CCC(c2ccccc2)CC1 (centres undefined),inactive,–
CN1c2ccccc2C(C)(C)C12CC(c1cccc(S(=O)(=O)N3CCCC3)c1)=NO2 (centres undefined),inactive,–

# (next part)

SMILES,Potency,"activity change, negative = inhibition"
CC1(C)CC(=O)C(N=Nc2ccc(F)cc2)=C(O)C1,–,inactive: -30.8% [at 9.22 µM]
COc1ccccc1CCC(=O)Nc1ccc(C)cc1Cl,inactive,–
COCCN1C(=O)/C(=C/c2ccc(N3CCCC3)cc2C)SC1=S,–,inactive: -8.86% [at 9.22 µM]
O=C(Nc1ccc2c(c1)nc1n2CCN(Cc2ccccc2)C1)c1cccs1,"inconclusive: 1 µM [activator, full curve, poor fit]",–
S=c1[nH]ncn1/N=C/c1ccccc1,inactive,–
NC(=O)NC(CCC(=O)O)C(=O)O (centres undefined),inactive,–
COc1ccc(/C(N)=N/O)c(OC)c1,inactive,–
NNC(=O)COc1cccc(C(F)(F)F)c1,inactive,–
CC1=NOC(=O)/C1=C\c1ccc(-c2cc(Cl)ccc2Cl)o1,inactive,–
COc1cccc(N2CCN(c3c4c(nc5ncnn35)CCC4)CC2)c1,"inconclusive: 22.4 µM [inhibitor, single point]",–
O=C(CSc1nc2ccccc2s1)Nc1ccc2c(c1)oc1ccccc12,inactive,–
CCS(=O)(=O)Nc1cc(-c2nc3cccnc3s2)ccc1C,"inconclusive: 0.562 µM [inhibitor, full curve, poor fit]",–
CC(=O)N1c2ccc(Cl)cc2C2C=CCC2C1c1cccc2ccccc12 (centres undefined),"inconclusive: 5.62 µM [inhibitor, single point]",–
O=C(c1cc2ccccc2o1)N1CCCCCC1,inactive,–
CCN(CC)S(=O)(=O)c1cccc(-c2nnc(-c3ccc(C)cc3)o2)c1,inactive,–
CCCCCC1CC(=O)N(Cc2ccc(Cl)cc2)C(=O)N1 (centres undefined),"inconclusive: 35.5 µM [inhibitor, single point]",–
Cn1nc(C(F)(F)F)c(C#N)c1N1CCN(c2ccccc2)CC1,active: 1.41 µM,–
Cc1c(/C=N/NC(=O)c2ccc(O)cc2)c2ccccn2c1C(=O)c1ccc(F)cc1,"inconclusive: 35.5 µM [inhibitor, single point]",–
Cc1ccccc1Cn1nc(C)c(NC(=O)C2c3ccccc3Oc3ccccc32)c1C,"inconclusive: 35.5 µM [activator, single point]",–
COc1ccc(C(=O)/C=C/Nc2ccc(C)cn2)cc1OC,"inconclusive: 5.62 µM [inhibitor, single point]",–
c1cnn(-c2nc(N3CCOCC3)nc(N3CCOCC3)n2)c1,"inconclusive: 17.8 µM [inhibitor, partial curve, poor fit]",–
CCOC(=O)CNC(=O)CNC(=O)c1ccc(OC)cc1,"inconclusive: 3.16 µM [inhibitor, single point]",–
Cc1ccccc1OCC(=O)N(CC(C)C)c1c(N)n(CC(C)C)c(=O)[nH]c1=O,–,inactive: 0.316% [at 9.22 µM]
CC1=CC(C)(C)N2C(=O)C3(N=C(N)NC(Nc4ccccc4)=N3)c3cc(C)cc1c32 (centres undefined),"inconclusive: 5.62 µM [activator, single point]",–

# Reference: PubChem BioAssay AID1688 (National Center for Advancing Translational Sciences (NCATS), 2009)
